Data set [1] in a line: general procedure: Fmoc solid-phase peptide synthesis; Rink amide resin R1; DIC/Oxyma Pure; HATU; PyAOP; DIPEA as base. To be noted: whole synthesis, scale 0.300 mmol, TFA salt.
Data set [2] can be described thus: general procedure: Fmoc solid-phase peptide synthesis; Fmoc-Rink Amide ProTide resin, Fmoc-Rink Amide AM resin, Fmoc-Sieber resin or Fmoc-Lys(Boc)-Wang resin; DIC/Oxyma Pure; HATU; PyAOP; DIPEA as base. To be noted: for cyclisation yield: cyclisation step; for isolated mass / isolated yield: whole synthesis.

Turning to “NAc-propargyl-Gly-SAR14-Lys(Alloc)-SAR14-propargyl-Gly-NH2”, in data set [1], the isolated mass is 151 mg and the isolated yield worked out at 20.5% yield.
In the case of “(3S,6S,9S,12S,15S,18S,21S,24S,27S)-9-((1H-indol-3-yl)methyl)-27-acetamido-N—((S)-1-amino-3-(4-fluorophenyl)-1-oxopropan-2-yl)-6-cyclopropyl-12-((5-hydroxy-1H-indol-3-yl)methyl)-24-(4-hydroxybenzyl)-15,21-bis(hydroxymethyl)-N,4,16,19-tetramethyl-5,8,11,14,17,20,23,26,30-nonaoxo-18-phenethyl-1,4,7,10,13,16,19,22,25-nonaazacyclotriacontane-3-carboxamide”, the cyclisation yield in data set [2] (on A25-2, TFA salt) is listed as 20% yield.
In the case of “(3S,6S,9S,12S,15S,18S,21S,24S,27S)-9-((1H-indol-3-yl)methyl)-27-acetamido-15-(4-acetamidobutyl)-N—((S)-1-(((S)-1-amino-6-azido-1-oxohexan-2-yl)amino)-3-(4-fluorophenyl)-1-oxopropan-2-yl)-6-cyclopropyl-12-((5-hydroxy-1H-indol-3-yl)methyl)-24-(4-hydroxybenzyl)-21-(hydroxymethyl)-N,4,16,19-tetramethyl-5,8,11,14,17,20,23,26,31-nonaoxo-18-phenethyl-1,4,7,10,13,16,19,22,25-nonaazacyclohentriacontane-3-carboxamide”, the cyclisation yield in data set [2] (on A40-1, TFA salt) is recorded as 51% yield.
With “2-(4-(((S)-5-((S)-2-((3S,6S,9S,12S,15S,18S,21S,24S,27S)-9-((1H-indol-3-yl)methyl)-15-(4-acetamidobutyl)-27-amino-12-((5-hydroxy-1H-indol-3-yl)methyl)-24-(4-hydroxybenzyl)-6-((S)-1-hydroxyethyl)-21-(hydroxymethyl)-N,4,16,19-tetramethyl-5,8,11,14,17,20,23,26,30-nonaoxo-18-phenethyl-1,4,7,10,13,16,19,22,25-nonaazacyclotriacontane-3-carboxamido)-3-(4-fluorophenyl)propanamido)-6-amino-6-oxohexyl)carbamoyl)piperazin-1-yl) acetic acid TFA salt”, in data set [2] (scale 0.375 mmol, TFA salt), the isolated mass worked out at 27.5 mg and the isolated yield came to 3.8% yield.
“(6S,9S,12S,15S,18S,21S,24S,27S,30S)-12-((1H-indol-3-yl)methyl)-30-amino-N—((S)-1-amino-3-(4-fluorophenyl)-1-oxopropan-2-yl)-9-cyclopropyl-15-((5-hydroxy-1H-indol-3-yl)methyl)-27-(4-hydroxybenzyl)-18,24-bis(hydroxymethyl)-N,7,19,22-tetramethyl-3,8,11,14,17,20,23,26,29-nonaoxo-21-phenethyl-4,7,10,13,16,19,22,25,28-nonaaza-1 (1,3)-benzenacyclohentriacontaphane-6-carboxamide TFA salt”: the cyclisation yield in data set [2] (TFA salt) is given as 23% yield.
As for “(3S,6S,9S,12S,15S,18S,21S,24S,27S)-9-((1H-indol-3-yl)methyl)-27-acetamido-15-(4-acetamidobutyl)-N-((2S,5S)-5-carbamoyl-1-(4-fluorophenyl)-3,11,45-trioxo-49-((3aS,4S,6aR)-2-oxohexahydro-1H-thieno[3,4-d]imidazol-4-yl)-14,17,20,23,26,29,32,35,38,41-decaoxa-4,10,44-triazanonatetracontan-2-yl)-12-((5-hydroxy-1H-indol-3-yl)methyl)-24-(4-hydroxybenzyl)-6-((S)-1-hydroxyethyl)-21-(hydroxymethyl)-N,4,16,19-tetramethyl-5,8,11,14,17,20,23,26,30-nonaoxo-18-phenethyl-1,4,7,10,13,16,19,22,25-nonaazacyclotriacontane-3-carboxamide”, in data set [2] (scale 125 μmol, TFA salt), the isolated mass worked out at 16.17 mg and the isolated yield is listed as 5.1% yield.
As to “(3S,6S,9S,12S,15S,18S,21S,24S,27S)-9-((1H-indol-3-yl)methyl)-27-acetamido-15-(4-acetamidobutyl)-N—((S)-1-(((S)-1-amino-6-(6-fluoronicotinamido)-1-oxohexan-2-yl)amino)-3-(4-fluorophenyl)-1-oxopropan-2-yl)-6-cyclopropyl-12-((5-hydroxy-1H-indol-3-yl)methyl)-24-(4-hydroxybenzyl)-21-(hydroxymethyl)-N,4,16,19-tetramethyl-5,8,11,14,17,20,23,26,31-nonaoxo-18-phenethyl-1,4,7,10,13,16,19,22,25-nonaazacyclohentriacontane-3-carboxamide TFA salt”, the step yield in data set [2] (late stage modification step, TFA salt) worked out at 90% yield.
For the substance “(3S,6S,9S,12S,15S,18S,21S,24S,27S)-9-((1H-indol-3-yl)methyl)-27-acetamido-15-(4-acetamidobutyl)-N—((S)-1-(((S)-1,6-diamino-1-oxohexan-2-yl)amino)-3-(4-fluorophenyl)-1-oxopropan-2-yl)-12-((5-hydroxy-1H-indol-3-yl)methyl)-24-(4-hydroxybenzyl)-6-((S)-1-hydroxyethyl)-21-(hydroxymethyl)-N,4,16,19-tetramethyl-5,8,11,14,17,20,23,26,30-nonaoxo-18-phenethyl-1,4,7,10,13,16,19,22,25-nonaazacyclotriacontane-3-carboxamide TFA salt”, in data set [2] (scale 0.375 mmol, TFA salt), the isolated mass stood at 38.2 mg and the isolated yield worked out at 5.7% yield.

These data come from US20250332300A1 (priority 2024, published 2025).
